These results are taken from PMC3228759.

For the data set, the system named is RBM3 (rRBM3). In words: EMSA. Particulars: 30-300 ng rRBM3, tRNA and heparin; EMSA: 5 mM Tris pH 7.4, 12.5 mM NaCl, 0.05 mM EDTA, 0.05 mg/ml tRNA, 0.05 mg/ml heparin, 0.01% Igepal, 10 µl, 125 fmol RNA, 4°C 30 min; recombinant protein; label: 32P; letters put together from the description. (In EMSA bound probe runs differently from free probe, usually more slowly.)

For at least one entry, the source does not settle the construct or the ends of the probe.

As for “GAGACAGAGCGGUGCCUUAGCAGCACGUAAAUAUUGGCGUUAAGAUUCUGAAAUUACCUCCAGUAUUGACUGUGCUGCUGAAGUAAGGUU [pre-miR-16]”, the binding result is “binds”. The result for “GAGACAGGCCAGGCUGAGGUAGUAGUUUGUACAGUUUGAGGGUCUAUGAUACCACCCGGUACAGGAGAUAACUGUACAGGCCACUGCCUUGCCAGG [pre-let-7g]” reads “binds”.
